Taken from: PubChem BioAssay AID1159584 (Peter MacCallum Cancer Centre, 2016)
This is a random part of about 18,000 reagents tested. Further read-outs or replicates are left out here. Not stated in the record: the amount of reagent, the time to read-out.

Assay: 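Knock-downs that harm CDH1-null cells more than parental MCF10A cells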 (primary screen)
System: human MCF10A breast epithelial cells, parental and CDH1-null
Reagents: siRNA against human genes
Measurement: 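Cell viability by CellTiter-Glo ATP luminescence, each line scaled to the mean of mock wells across plates, then CDH1-null over parental ratio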
Direction: CDH1-null / parental viability ratio: higher = CDH1-null cells survive relatively better than parental

For SERPINB8, how do the results read?
CDH1-null / parental viability ratio: 1.14

What is on record for TLR9?
CDH1-null / parental viability ratio: 1.18

With RGN, how do the results read?
CDH1-null / parental viability ratio: 0.78

With THNSL2, what does the deposit list?
CDH1-null / parental viability ratio: 1.04

For MALT1, what does the deposit list?
CDH1-null / parental viability ratio: 1.02

With SNRPD3, what does the deposit list?
CDH1-null / parental viability ratio: 0.88

For NXF1, how do the results read?
CDH1-null / parental viability ratio: 0.67

How did the screen score SMAD1?
CDH1-null / parental viability ratio: 1.17

For TMEM132B, how do the results read?
CDH1-null / parental viability ratio: 0.85

For HEPH, what does the deposit list?
CDH1-null / parental viability ratio: 1.19

What did the screen give for SUGP2?
CDH1-null / parental viability ratio: 1.23

What did the screen give for DDX51?
CDH1-null / parental viability ratio: 1.22

With FKBP8, what was measured?
CDH1-null / parental viability ratio: 1.06

For PCDHB16, how do the results read?
CDH1-null / parental viability ratio: 1.33

Which result is listed for ZNF644?
CDH1-null / parental viability ratio: 0.98

For EMILIN3, what does the deposit list?
CDH1-null / parental viability ratio: 0.9

How did the screen score MASP2?
CDH1-null / parental viability ratio: 1.17

For CYP4F11, what does the deposit list?
CDH1-null / parental viability ratio: 0.89

With PSMD4, what does the deposit list?
CDH1-null / parental viability ratio: 1.31

With ZC2HC1A, what was measured?
CDH1-null / parental viability ratio: 1.02

For INTS4, what does the deposit list?
CDH1-null / parental viability ratio: 1.42

What did the screen give for BICD1?
CDH1-null / parental viability ratio: 1.01

For ZNF484, what was measured?
CDH1-null / parental viability ratio: 1.14

Which result is listed for MAN1B1?
CDH1-null / parental viability ratio: 1.03

For ANKRD13C, what does the deposit list?
CDH1-null / parental viability ratio: 1.09

How did the screen score IVNS1ABP?
CDH1-null / parental viability ratio: 0.95

What is on record for MT1B?
CDH1-null / parental viability ratio: 1

Which result is listed for AGBL2?
CDH1-null / parental viability ratio: 1.21

For PRKD1, what does the deposit list?
CDH1-null / parental viability ratio: 0.99

For DEPDC7, what was measured?
CDH1-null / parental viability ratio: 0.8

For GARIN5A, what was measured?
CDH1-null / parental viability ratio: 1.5

With AKIRIN1, what does the deposit list?
CDH1-null / parental viability ratio: 1.19

For DNMBP, how do the results read?
CDH1-null / parental viability ratio: 1.09

What is on record for CYP3A5?
CDH1-null / parental viability ratio: 1.35

For PCDHB1, how do the results read?
CDH1-null / parental viability ratio: 0.85

4 successive entries from above, quoted:
MALT1: CDH1-null / parental viability ratio = 1.02
SNRPD3: CDH1-null / parental viability ratio = 0.88
NXF1: CDH1-null / parental viability ratio = 0.67
SMAD1: CDH1-null / parental viability ratio = 1.17
